Test: ELISA analysis of IFN-γ protein in the CNS of double transgenic mice
Assay type: in vivo
Settings: for level of INF-γ (ELISA): EAE

B1: IFN-γ: pleotropic cytokine secreted by activated T lymphocytes and natural killer cells; recombinant rat IFN-γ added to cultures or transgenically expressed in mouse CNS (protein, UniProt P01581 23-156, looked up)
Interferon gamma: QGTLIESLESLKNYFNSSSMDAMEGKSLLLDIWRNWQKDGNTKILESQIISFYLRLFEVLKDNQAISNNISVIESHLITNFFSNSKAKKDAFMSIAKFEVNNPQIQHKAVNELIRVIHQLSPESSLRKRKRSRC
IFN-γ in the forebrain (DOX− double transgenic mice, after 2 weeks of cuprizone treatment and removal of doxycycline): approximately 20 pg/mg | level of INF-γ (ELISA) (PID50, DOX− mice, control DOX+ 6.22): 40.24 pg/mg | level of INF-γ (ELISA) (peak of disease PID 17, similar in DOX+ and DOX− mice): 60 pg/mg

Reference: US8415106B2, “Cell-based screen for agents useful for reducing neuronal demyelination or promoting neuronal remyelination” (Myelin Repair Foundation, Inc., priority 2005, dated 2013)
